Article PMC4278274
No constants are given. Whether binding was seen depends on the method and setting. Binding seen in cells or lysates may run through a third protein. Some results given as binding are weak or reduced against the parent protein; the word gives no strength.

Protein sequences, listed by entry. Tags and fused reporters are not part of them.
UniProt O00560: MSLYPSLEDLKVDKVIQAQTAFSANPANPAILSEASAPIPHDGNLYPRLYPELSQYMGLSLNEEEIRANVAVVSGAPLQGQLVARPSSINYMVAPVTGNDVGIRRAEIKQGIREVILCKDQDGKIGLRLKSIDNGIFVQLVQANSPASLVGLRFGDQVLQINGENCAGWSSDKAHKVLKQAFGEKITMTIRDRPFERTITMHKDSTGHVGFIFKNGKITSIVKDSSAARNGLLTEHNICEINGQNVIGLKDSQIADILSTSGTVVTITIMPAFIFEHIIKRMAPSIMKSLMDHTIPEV
UniProt P35222: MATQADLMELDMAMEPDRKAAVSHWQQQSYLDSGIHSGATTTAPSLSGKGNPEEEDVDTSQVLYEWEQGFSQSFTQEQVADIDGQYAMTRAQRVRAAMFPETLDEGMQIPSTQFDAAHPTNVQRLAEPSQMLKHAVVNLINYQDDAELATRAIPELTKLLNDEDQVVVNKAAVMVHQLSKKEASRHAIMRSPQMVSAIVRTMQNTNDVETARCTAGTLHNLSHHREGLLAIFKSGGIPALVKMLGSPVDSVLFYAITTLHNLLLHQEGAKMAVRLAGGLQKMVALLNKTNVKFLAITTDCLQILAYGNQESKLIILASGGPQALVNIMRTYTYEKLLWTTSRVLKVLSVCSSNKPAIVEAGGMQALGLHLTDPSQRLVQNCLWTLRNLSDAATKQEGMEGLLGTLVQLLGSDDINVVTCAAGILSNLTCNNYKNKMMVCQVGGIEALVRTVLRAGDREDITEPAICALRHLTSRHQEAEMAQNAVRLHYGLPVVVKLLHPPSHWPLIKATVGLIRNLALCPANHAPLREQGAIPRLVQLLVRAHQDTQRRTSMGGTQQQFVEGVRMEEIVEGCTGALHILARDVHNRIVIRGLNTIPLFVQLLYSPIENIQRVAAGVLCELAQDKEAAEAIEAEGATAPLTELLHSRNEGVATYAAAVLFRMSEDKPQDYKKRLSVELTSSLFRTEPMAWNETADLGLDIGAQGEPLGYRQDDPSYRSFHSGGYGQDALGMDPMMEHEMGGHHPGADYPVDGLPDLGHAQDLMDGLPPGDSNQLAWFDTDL

Molecular target: MDA-9/Syntenin (human (endogenous in oral epithelial cell lines)) (UniProt O00560)
Test: co-IP; immunoprecipitation from whole cell lysates of oral epithelial cell lines, control immunoglobulin G, read by immunoblotting; protocol as in ref. 4

Q: For CTNNB1 (from UniProt P35222 1-781), which binding is on record?
A: binds
